Measurements reported in the supplement of paper PMC10849652.
The other results are listed elsewhere or left out.

Amino acid sequences for entries named in this document (tags omitted). A change or cut given only in a name is not applied to a line headed by its entry.
UniProt Q9Y512: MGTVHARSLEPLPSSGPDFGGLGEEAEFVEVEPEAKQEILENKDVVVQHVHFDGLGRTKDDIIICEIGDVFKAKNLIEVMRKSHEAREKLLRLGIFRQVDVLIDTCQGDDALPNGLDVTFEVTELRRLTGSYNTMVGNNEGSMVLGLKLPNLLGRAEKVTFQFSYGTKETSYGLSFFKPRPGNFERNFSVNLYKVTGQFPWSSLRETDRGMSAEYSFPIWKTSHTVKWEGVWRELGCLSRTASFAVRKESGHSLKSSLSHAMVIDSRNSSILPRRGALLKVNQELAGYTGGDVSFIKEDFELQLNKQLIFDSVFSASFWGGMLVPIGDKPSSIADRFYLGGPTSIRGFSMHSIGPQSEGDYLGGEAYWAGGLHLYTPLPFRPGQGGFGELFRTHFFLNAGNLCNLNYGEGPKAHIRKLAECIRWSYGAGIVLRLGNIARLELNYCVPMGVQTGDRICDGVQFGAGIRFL
UniProt Q15437: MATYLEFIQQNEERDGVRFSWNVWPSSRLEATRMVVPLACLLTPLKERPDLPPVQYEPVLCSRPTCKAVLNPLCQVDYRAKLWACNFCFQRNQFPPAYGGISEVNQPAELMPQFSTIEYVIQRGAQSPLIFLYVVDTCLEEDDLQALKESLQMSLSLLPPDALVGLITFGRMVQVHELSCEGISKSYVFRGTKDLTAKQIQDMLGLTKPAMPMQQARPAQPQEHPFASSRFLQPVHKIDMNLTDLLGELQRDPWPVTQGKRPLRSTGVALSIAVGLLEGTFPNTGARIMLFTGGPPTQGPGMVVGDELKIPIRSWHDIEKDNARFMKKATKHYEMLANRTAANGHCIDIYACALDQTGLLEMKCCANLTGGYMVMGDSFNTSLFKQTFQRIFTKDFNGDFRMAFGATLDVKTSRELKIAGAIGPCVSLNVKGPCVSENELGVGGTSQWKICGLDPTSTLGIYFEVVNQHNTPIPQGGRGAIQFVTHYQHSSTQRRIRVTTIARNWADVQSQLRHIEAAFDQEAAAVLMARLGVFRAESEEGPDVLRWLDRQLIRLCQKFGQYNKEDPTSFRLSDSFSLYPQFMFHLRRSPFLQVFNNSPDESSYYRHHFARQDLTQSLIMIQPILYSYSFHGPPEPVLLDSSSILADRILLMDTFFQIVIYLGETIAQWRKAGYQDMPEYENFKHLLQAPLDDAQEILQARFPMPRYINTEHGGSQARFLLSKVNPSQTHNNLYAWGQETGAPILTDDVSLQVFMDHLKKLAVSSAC
UniProt Q99643: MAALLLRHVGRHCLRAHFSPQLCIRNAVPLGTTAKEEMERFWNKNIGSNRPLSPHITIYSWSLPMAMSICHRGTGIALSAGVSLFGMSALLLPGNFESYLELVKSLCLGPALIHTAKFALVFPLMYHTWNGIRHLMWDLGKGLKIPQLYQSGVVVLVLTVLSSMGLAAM
UniProt Q6P3W7: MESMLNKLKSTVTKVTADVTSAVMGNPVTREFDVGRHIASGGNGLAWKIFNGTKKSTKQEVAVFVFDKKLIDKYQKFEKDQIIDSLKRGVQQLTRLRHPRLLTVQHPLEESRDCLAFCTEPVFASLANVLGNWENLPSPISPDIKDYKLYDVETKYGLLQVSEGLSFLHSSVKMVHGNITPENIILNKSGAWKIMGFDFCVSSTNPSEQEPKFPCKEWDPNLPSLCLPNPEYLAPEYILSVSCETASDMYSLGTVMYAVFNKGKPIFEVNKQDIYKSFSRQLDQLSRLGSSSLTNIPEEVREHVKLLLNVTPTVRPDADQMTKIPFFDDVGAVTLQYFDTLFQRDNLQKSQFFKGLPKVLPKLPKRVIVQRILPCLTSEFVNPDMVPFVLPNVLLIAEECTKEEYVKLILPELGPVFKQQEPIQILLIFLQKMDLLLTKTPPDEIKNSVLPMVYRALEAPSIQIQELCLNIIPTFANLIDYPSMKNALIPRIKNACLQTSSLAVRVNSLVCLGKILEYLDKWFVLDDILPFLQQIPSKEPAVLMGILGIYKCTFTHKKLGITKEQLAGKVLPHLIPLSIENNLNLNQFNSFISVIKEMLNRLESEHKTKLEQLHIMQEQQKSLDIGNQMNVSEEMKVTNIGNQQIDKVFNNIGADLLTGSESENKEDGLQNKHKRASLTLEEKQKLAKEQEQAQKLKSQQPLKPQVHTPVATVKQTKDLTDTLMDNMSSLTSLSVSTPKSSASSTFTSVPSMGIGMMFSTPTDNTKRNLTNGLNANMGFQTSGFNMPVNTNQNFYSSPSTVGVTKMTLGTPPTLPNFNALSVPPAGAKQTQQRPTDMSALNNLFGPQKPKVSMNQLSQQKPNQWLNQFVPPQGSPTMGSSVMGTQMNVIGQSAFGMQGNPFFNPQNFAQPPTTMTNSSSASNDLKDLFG
UniProt Q99590: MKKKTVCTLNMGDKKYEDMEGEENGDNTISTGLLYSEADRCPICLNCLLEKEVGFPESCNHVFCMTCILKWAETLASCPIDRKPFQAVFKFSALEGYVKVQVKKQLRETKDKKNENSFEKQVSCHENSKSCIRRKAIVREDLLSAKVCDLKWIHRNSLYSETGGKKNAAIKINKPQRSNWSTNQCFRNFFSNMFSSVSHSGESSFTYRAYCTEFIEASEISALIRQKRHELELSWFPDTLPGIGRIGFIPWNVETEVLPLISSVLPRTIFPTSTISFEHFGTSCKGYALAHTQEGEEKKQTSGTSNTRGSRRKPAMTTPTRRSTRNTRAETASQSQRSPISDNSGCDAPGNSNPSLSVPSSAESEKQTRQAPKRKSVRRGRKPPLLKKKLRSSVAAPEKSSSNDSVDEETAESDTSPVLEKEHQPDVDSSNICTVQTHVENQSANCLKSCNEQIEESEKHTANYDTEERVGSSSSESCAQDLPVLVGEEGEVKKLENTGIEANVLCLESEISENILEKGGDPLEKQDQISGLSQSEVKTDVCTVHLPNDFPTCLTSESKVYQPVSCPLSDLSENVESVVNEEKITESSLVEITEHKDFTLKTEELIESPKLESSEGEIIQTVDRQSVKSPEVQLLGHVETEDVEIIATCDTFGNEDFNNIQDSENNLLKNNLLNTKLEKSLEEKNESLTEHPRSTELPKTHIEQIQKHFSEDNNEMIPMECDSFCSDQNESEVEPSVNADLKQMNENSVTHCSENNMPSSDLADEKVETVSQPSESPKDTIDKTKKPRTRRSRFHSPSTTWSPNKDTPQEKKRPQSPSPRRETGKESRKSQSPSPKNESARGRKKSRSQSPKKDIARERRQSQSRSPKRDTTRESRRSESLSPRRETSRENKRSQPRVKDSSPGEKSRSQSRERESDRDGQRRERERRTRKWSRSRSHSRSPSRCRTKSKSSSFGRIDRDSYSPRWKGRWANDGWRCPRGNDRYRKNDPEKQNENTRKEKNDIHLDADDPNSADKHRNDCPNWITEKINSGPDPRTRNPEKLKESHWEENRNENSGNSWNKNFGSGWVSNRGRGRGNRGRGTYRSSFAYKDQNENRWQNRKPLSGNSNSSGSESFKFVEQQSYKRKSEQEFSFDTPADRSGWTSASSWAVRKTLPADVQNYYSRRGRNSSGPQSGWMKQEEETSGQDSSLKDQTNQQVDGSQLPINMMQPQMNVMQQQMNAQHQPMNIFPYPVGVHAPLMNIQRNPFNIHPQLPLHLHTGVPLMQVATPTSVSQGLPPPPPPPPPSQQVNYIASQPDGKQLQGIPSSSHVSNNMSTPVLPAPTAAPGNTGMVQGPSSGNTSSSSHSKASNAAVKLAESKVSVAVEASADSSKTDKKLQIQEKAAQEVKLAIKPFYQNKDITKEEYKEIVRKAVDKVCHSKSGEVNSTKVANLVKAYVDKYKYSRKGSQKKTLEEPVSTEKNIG
UniProt Q9Y6U3: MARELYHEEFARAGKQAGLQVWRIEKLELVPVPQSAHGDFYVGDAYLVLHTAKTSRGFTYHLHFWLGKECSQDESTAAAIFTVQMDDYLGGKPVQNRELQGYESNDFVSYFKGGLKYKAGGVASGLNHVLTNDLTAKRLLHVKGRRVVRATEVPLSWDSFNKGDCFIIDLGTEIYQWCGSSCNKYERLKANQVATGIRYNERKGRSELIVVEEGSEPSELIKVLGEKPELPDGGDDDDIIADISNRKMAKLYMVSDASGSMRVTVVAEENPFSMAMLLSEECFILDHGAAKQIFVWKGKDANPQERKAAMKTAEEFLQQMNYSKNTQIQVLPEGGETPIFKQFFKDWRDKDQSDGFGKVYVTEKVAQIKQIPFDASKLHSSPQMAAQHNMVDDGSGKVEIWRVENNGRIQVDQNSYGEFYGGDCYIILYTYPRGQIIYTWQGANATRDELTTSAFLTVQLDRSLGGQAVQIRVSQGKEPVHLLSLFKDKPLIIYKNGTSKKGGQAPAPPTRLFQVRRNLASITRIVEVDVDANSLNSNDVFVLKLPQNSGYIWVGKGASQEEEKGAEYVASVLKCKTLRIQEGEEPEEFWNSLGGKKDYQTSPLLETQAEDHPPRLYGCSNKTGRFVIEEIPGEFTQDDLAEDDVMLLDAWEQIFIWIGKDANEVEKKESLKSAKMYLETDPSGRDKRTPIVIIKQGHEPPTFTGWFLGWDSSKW
UniProt Q9C0C4, whole entry, looked up: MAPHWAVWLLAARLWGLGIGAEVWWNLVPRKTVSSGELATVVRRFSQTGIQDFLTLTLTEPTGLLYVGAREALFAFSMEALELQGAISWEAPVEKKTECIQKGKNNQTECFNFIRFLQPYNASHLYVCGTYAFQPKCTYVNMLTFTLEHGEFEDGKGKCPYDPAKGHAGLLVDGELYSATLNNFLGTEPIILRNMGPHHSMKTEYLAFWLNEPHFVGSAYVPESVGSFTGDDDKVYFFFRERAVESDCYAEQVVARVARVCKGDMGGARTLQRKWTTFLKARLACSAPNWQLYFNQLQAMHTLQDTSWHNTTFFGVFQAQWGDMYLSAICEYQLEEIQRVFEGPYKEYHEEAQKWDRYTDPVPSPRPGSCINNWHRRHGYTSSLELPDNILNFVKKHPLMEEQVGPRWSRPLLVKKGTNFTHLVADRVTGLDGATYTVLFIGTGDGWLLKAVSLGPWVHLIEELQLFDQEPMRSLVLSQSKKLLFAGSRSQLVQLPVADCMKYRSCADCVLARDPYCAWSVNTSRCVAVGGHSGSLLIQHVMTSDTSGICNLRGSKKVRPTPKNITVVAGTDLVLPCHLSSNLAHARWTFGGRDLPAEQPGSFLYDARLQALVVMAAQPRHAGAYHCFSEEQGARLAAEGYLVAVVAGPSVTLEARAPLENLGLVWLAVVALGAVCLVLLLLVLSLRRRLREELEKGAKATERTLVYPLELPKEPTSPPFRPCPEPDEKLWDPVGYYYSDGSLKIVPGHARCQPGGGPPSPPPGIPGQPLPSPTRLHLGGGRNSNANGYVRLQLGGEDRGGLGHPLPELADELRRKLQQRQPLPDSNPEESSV
UniProt O15126: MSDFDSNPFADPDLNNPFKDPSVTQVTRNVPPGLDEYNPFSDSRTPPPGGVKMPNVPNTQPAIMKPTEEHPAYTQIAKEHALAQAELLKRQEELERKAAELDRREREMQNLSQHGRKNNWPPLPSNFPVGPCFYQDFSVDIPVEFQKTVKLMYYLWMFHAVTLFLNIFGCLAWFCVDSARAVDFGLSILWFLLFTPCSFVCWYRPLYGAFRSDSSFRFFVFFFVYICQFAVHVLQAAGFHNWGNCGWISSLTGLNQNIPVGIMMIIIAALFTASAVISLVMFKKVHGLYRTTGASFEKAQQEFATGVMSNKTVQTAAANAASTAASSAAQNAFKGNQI
UniProt Q9NTJ5: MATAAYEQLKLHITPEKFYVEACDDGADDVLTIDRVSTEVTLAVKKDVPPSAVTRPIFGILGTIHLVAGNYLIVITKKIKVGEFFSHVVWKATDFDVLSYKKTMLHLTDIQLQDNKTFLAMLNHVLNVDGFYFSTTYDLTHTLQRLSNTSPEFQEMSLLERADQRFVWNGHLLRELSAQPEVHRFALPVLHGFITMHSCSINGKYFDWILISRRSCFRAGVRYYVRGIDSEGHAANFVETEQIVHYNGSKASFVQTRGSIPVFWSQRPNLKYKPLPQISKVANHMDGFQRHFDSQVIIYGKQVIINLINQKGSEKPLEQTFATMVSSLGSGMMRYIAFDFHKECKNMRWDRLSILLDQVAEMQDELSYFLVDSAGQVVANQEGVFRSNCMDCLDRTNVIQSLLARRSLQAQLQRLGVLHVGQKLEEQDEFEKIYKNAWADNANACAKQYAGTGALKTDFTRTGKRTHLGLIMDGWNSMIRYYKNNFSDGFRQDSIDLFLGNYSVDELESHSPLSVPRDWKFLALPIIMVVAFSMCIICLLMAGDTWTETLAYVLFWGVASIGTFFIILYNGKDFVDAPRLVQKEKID

Assays:
Assay in all cases: log2 fold change, soluble protein after heating vs DMSO (PISA); higher = thermal stabilisation; K562 lysate, 10 uM; active = over 0.2 and 3.5 SD of the protein, either way, in both replicates (recomputed)
erlotinib = compound: C#Cc1cccc(Nc2ncnc3cc(OCCOC)c(OCCOC)cc23)c1 [erlotinib]
Procedure, shortened: (§1)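 Dounce homogenisation of K562 pellets in PBS pH 7.4 with 1 mM MgCl2 produced a crude extract, used at 1 mg/mL protein. Exposure to 10 μM compound lasted 30 min, and aliquots were then heated for 3 min across 48°C-58°C, pooled and brought to 0.5% NP-40 at 4°C. The supernatant after 21,000xg for 90 min was quantified by TMTpro 16plex LC-MS/MS with channel sums equalised. Duplicate values are given as log-two fold change in thermal stability relative to solvent controls.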

[1] = compound: C/C(=N\NC(=O)C1=CC(=CC=C1)S(=O)(=O)N2CCOCC2)/C3=C(C=CC(=C3)Cl)O
Procedure, shortened: as §1

[2] = compound: C1=CC(=CC=C1C2=NC3=C(N2)C=C(C=C3)C(=O)N)OC4=CC=C(C=C4)Cl
Procedure, shortened: as §1

[3] = compound: C1=CC2=C(C=CC(=C2)/C=C\3/C(=O)NC(=NCC4=CC=CS4)S3)N=C1
Procedure, shortened: as §1

[4] = compound: C1=CC2=NC=CN=C2C=C1/C=C/3\C(=O)NC(=O)S3
Procedure, shortened: as §1

[5] = compound: C1=CC=C(C=C1)C2=NC(=C(N2)C3=CC=NC=C3)C4=CC(=C(C=C4)Cl)O
Procedure, shortened: as §1

[6] = compound: C1=CC=C2C(=C1)C3=NNC4=CC=CC(=C43)C2=O
Procedure, shortened: as §1

[7] = compound: C1CCN(C1)C(=O)NC2=CC=CC(=C2)NC3=NC=C(C(=N3)NCCC4=CN=CN4)Br
Procedure, shortened: as §1

[8] = compound: C1CN(CCC1(CC2=CC=C(C=C2)Cl)N)C3=NC=NC4=C3C=CN4
Procedure, shortened: as §1

IRAK-1-4 Inhibitor I = compound: C1COCCN1CCN2C3=CC=CC=C3N=C2NC(=O)C4=CC(=CC=C4)[N+](=O)[O-] [IRAK-1-4 Inhibitor I]
Procedure, shortened: as §1

ibrutinib = compound: C=CC(=O)N1CCC[C@@H](n2nc(-c3ccc(Oc4ccccc4)cc3)c3c(N)ncnc32)C1 [ibrutinib]
Procedure, shortened: as §1

[9] = compound: CC(=O)c1cnc2ccc(-c3cc(Cl)c(O)c(Cl)c3)nc2c1N[C@H]1CC[C@H](CN(C)C)CC1
Procedure, shortened: as §1

ralimetinib = compound: CC(C)(C)Cn1c(N)nc2ccc(-c3[nH]c(C(C)(C)C)nc3-c3ccc(F)cc3)nc21 [ralimetinib]
Procedure, shortened: as §1

[10] = compound: CC(C)(O)CC(=O)NCCn1ccc2ncnc(Nc3ccc(Oc4cccc(C(F)(F)F)c4)c(Cl)c3)c21
Procedure, shortened: as §1

[11] = compound: CC(C)C1=C2N=C(C=C(N2N=C1)NCC3=CC=CC=C3)NCCCCCCN
Procedure, shortened: as §1

[12] = compound: CC1=C(C(CC(=O)N1)C2=CC=C(C=C2)C(F)(F)F)C(=O)NC3=C(C=C4C(=C3)C=NN4)F
Procedure, shortened: as §1

[13] = compound: CC1=C(C2=C(C=C1)C(=O)C3=CC=CC=C3N2CCCN)C
Procedure, shortened: as §1

[14] = compound: CC1=C(C=C(C=C1)NC(=O)C2=CC(=CC=C2)C(C)(C)C#N)NC3=CC4=C(C=C3)N=CN(C4=O)C
Procedure, shortened: as §1

[15] = compound: CC1=C(C=C(C=C1)NC(=O)C2=CC(=CC=C2)N(C)C)NC(=O)C3=CC=C(C=C3)O
Procedure, shortened: as §1

[16] = compound: CC1=CC=C(C=C1)SC2=C3C=C(SC3=CN=C2)C(=O)N
Procedure, shortened: as §1

Measured: log2 fold change

SCAF1 (UniProt Q9H7N4)
inactive: erlotinib 0.016 | [1] 0.113 | [2] 0.066 | [3] 0.218 | [4] 0.025 | [5] -0.022 | [6] 0.033 | [7] 0.047 | [8] 0.041 | IRAK-1-4 Inhibitor I 0.081 | ibrutinib 0.219 | [9] -0.054 | ralimetinib -0.025 | [10] 0.171 | [11] 0.042 | [12] 0.065 | [13] -0.06 | [14] 0.056 | [15] 0.056 | [16] 0.002

SAMM50 (UniProt Q9Y512)
inactive: erlotinib 0.002 | [1] 0.021 | [2] -0.036 | [3] -0.003 | [4] 0.005 | [5] 0.005 | [6] -0.081 | [7] -0.009 | [8] 0.001 | IRAK-1-4 Inhibitor I 0.047 | ibrutinib -0.044 | [9] -0.004 | ralimetinib 0 | [10] -0.058 | [11] 0.009 | [12] 0.013 | [13] 0.004 | [14] 0.038 | [15] 0.013 | [16] -0.011

SEPTIN6 (UniProt Q14141)
inactive: erlotinib 0.003 | [1] 0.036 | [2] -0.021 | [3] -0.077 | [4] -0.106 | [5] 0.028 | [6] 0.006 | [7] -0.004 | [8] -0.021 | IRAK-1-4 Inhibitor I 0.035 | ibrutinib -0.002 | [9] -0.016 | ralimetinib -0.01 | [10] -0.037 | [11] 0 | [12] -0.032 | [13] 0.006 | [14] 0.06 | [15] 0.043 | [16] -0.002

SEPTIN5 (UniProt Q99719)
inactive: erlotinib -0.028 | [1] 0.009 | [2] -0.003 | [3] 0.035 | [4] -0.025 | [5] -0.024 | [6] 0.032 | [7] -0.023 | [8] -0.019 | IRAK-1-4 Inhibitor I -0.021 | ibrutinib 0.066 | [9] -0.014 | ralimetinib 0.021 | [10] 0.025 | [11] 0.009 | [12] 0.019 | [13] -0.043 | [14] -0.014 | [15] -0.019 | [16] 0.018

SEC23B (UniProt Q15437)
inactive: erlotinib 0.046 | [1] 0.016 | [2] -0.004 | [3] 0.009 | [4] 0.005 | [5] 0.005 | [6] 0.004 | [7] -0.002 | [8] 0.033 | IRAK-1-4 Inhibitor I 0.001 | ibrutinib -0.006 | [9] 0 | ralimetinib -0.008 | [10] 0.007 | [11] -0.015 | [12] 0 | [13] -0.016 | [14] -0.008 | [15] -0.011 | [16] 0.004

SBNO1 (UniProt A3KN83)
inactive: erlotinib -0.012 | [1] -0.023 | [2] 0.013 | [3] 0.011 | [4] -0.009 | [5] 0.009 | [6] -0.018 | [7] -0.036 | [8] 0.023 | IRAK-1-4 Inhibitor I -0.009 | ibrutinib -0.011 | [9] -0.004 | ralimetinib -0.002 | [10] -0.012 | [11] -0.001 | [12] -0.006 | [13] -0.02 | [14] 0.021 | [15] -0.003 | [16] 0

SEPTIN5 (UniProt G3XAH0)
inactive: erlotinib -0.015 | [1] 0.02 | [2] 0.048 | [3] -0.032 | [4] 0.036 | [5] 0.017 | [6] 0.051 | [7] 0.037 | [8] -0.011 | IRAK-1-4 Inhibitor I -0.025 | ibrutinib -0.002 | [9] -0.004 | ralimetinib -0.046 | [10] -0.036 | [11] 0.003 | [12] 0.011 | [13] 0.044 | [14] -0.02 | [15] -0.018 | [16] 0.062

SDHC (UniProt Q99643)
inactive: erlotinib 0.013 | [1] 0.002 | [2] 0.001 | [3] 0 | [4] -0.048 | [5] -0.01 | [6] 0.02 | [7] -0.02 | [8] -0.067 | IRAK-1-4 Inhibitor I 0.032 | ibrutinib 0.033 | [9] -0.012 | ralimetinib 0.064 | [10] -0.035 | [11] -0.05 | [12] -0.015 | [13] -0.013 | [14] -0.026 | [15] 0.023 | [16] 0.044

Random excerpt: 2 records from the list, in no set order.
SEPTIN5 (UniProt G3XAH0)
inactive: erlotinib -0.015 | [1] 0.02 | [2] 0.048 | [3] -0.032 | [4] 0.036 | [5] 0.017 | [6] 0.051 | [7] 0.037 | [8] -0.011 | IRAK-1-4 Inhibitor I -0.025 | ibrutinib -0.002 | [9] -0.004 | ralimetinib -0.046 | [10] -0.036 | [11] 0.003 | [12] 0.011 | [13] 0.044 | [14] -0.02 | [15] -0.018 | [16] 0.062

SDHC (UniProt Q99643)
inactive: erlotinib 0.013 | [1] 0.002 | [2] 0.001 | [3] 0 | [4] -0.048 | [5] -0.01 | [6] 0.02 | [7] -0.02 | [8] -0.067 | IRAK-1-4 Inhibitor I 0.032 | ibrutinib 0.033 | [9] -0.012 | ralimetinib 0.064 | [10] -0.035 | [11] -0.05 | [12] -0.015 | [13] -0.013 | [14] -0.026 | [15] 0.023 | [16] 0.044

(listing goes on)

SCYL2 (UniProt Q6P3W7)
inactive: erlotinib -0.017 | [1] 0.388 | [2] 0.058 | [3] -0.011 | [4] 0.016 | [5] -0.088 | [6] -0.012 | [7] -0.025 | [8] 0.005 | IRAK-1-4 Inhibitor I 0.011 | ibrutinib 0 | [9] 0.005 | ralimetinib -0.009 | [10] -0.025 | [11] 0.003 | [12] 0.045 | [13] 0.033 | [14] -0.029 | [15] -0.029 | [16] -0.012

SCAF11 (UniProt Q99590)
inactive: erlotinib 0.022 | [1] -0.077 | [2] 0.086 | [3] 0.013 | [4] -0.094 | [5] 0.028 | [6] 0.018 | [7] -0.053 | [8] 0.048 | IRAK-1-4 Inhibitor I -0.014 | ibrutinib 0.041 | [9] -0.002 | ralimetinib 0.021 | [10] -0.033 | [11] 0.011 | [12] -0.012 | [13] -0.041 | [14] 0.021 | [15] -0.004 | [16] -0.041

SCIN (UniProt Q9Y6U3)
inactive: erlotinib 0 | [1] 0.013 | [2] 0.023 | [3] 0.013 | [4] -0.017 | [5] 0.002 | [6] 0.003 | [7] -0.008 | [8] -0.001 | IRAK-1-4 Inhibitor I 0.028 | ibrutinib -0.008 | [9] 0.021 | ralimetinib -0.006 | [10] -0.015 | [11] -0.021 | [12] 0.012 | [13] -0.004 | [14] 0.026 | [15] -0.016 | [16] 0.009

SEMA4C (UniProt Q9C0C4)
inactive: erlotinib -0.005 | [1] -0.037 | [2] 0.034 | [3] -0.012 | [4] 0.027 | [5] -0.008 | [6] -0.079 | [7] -0.038 | [8] 0.021 | IRAK-1-4 Inhibitor I 0.086 | ibrutinib 0.023 | [9] -0.008 | ralimetinib -0.064 | [10] -0.047 | [11] -0.032 | [12] 0.007 | [13] -0.032 | [14] -0.017 | [15] 0.005 | [16] -0.013

SAMD4B (UniProt Q5PRF9)
inactive: erlotinib 0.054 | [1] -0.007 | [2] 0.014 | [3] 0.002 | [4] -0.022 | [5] 0.086 | [6] 0.024 | [7] 0.025 | [8] 0.055 | IRAK-1-4 Inhibitor I -0.01 | ibrutinib 0.008 | [9] -0.008 | ralimetinib 0.026 | [10] 0 | [11] 0.009 | [12] 0.046 | [13] 0.03 | [14] 0.044 | [15] 0.008 | [16] -0.007

SAE1 (UniProt Q9UBE0)
inactive: erlotinib -0.014 | [1] -0.079 | [2] 0 | [3] -0.016 | [4] 0.004 | [5] -0.01 | [6] 0.012 | [7] 0.001 | [8] -0.005 | IRAK-1-4 Inhibitor I -0.001 | ibrutinib -0.008 | [9] 0.005 | ralimetinib 0.005 | [10] 0.003 | [11] 0 | [12] -0.007 | [13] -0.007 | [14] 0.01 | [15] -0.017 | [16] -0.003

SCAMP1 (UniProt O15126)
inactive: erlotinib -0.003 | [1] -0.031 | [2] 0.014 | [3] -0.005 | [4] -0.04 | [5] -0.048 | [6] -0.016 | [7] 0.004 | [8] 0.026 | IRAK-1-4 Inhibitor I 0.049 | ibrutinib 0 | [9] 0.003 | ralimetinib -0.024 | [10] -0.063 | [11] 0.035 | [12] 0.037 | [13] 0.001 | [14] 0.008 | [15] 0.033 | [16] -0.004

SACM1L (UniProt Q9NTJ5)
inactive: erlotinib 0.063 | [1] 0.007 | [2] -0.167 | [3] 0 | [4] 0.018 | [5] -0.02 | [6] -0.057 | [7] -0.027 | [8] 0.012 | IRAK-1-4 Inhibitor I 0.043 | ibrutinib -0.019 | [9] 0.04 | ralimetinib 0.033 | [10] -0.115 | [11] 0.018 | [12] 0.037 | [13] 0.063 | [14] 0.003 | [15] 0.052 | [16] 0.052
